Our source for the binding values is paper PMC6102298.

The target in the experiment is mCherry-Mcl-1ΔTM (human). The experiment is described as follows: FRET or BRET; FRET/FLIM in fixed MCF7 cells co-transfected with EGFP (donor) and mCherry (acceptor) fusions, medium with 10 µM Q-VD-OPh; EGFP fluorescence lifetime, 470 nm pulsed laser. (In general: In BRET a luciferase serves as donor, and the signal depends on an acceptor being close.)

Results are given in words; binding and its absence hold for the method and conditions named. In cells and extracts the contact can be indirect. Sequences can lack the tags named with a protein.

B1: EGFP-Bok (protein, UniProt Q9UMX3 1-212)
chain: MEVLRRSSVFAAEIMDAFDRSPTDKELVAQAKALGREYVHARLLRAGLSWSAPERAAPVPGRLAEVCAVLLRLGDELEMIRPSVYRNVARQLHISLQSEPVVTDAFLAVAGHIFSAGITWGKVVSLYAVAAGLAVDCVRQAQPAMVHALVDCLGEFVRKTLATWLRRRGGWTDVLKCVVSTDPGLRSHWLVAALCSFGRFLKAAFFVLLPER
With B1, the binding entry was “no binding”.
